This assay addresses T1, transforming growth factor beta-induced protein (TGFBI), endogenous in GSCs (human (endogenous in T3691 GSCs)) (UniProt Q15582).
T1 sequence: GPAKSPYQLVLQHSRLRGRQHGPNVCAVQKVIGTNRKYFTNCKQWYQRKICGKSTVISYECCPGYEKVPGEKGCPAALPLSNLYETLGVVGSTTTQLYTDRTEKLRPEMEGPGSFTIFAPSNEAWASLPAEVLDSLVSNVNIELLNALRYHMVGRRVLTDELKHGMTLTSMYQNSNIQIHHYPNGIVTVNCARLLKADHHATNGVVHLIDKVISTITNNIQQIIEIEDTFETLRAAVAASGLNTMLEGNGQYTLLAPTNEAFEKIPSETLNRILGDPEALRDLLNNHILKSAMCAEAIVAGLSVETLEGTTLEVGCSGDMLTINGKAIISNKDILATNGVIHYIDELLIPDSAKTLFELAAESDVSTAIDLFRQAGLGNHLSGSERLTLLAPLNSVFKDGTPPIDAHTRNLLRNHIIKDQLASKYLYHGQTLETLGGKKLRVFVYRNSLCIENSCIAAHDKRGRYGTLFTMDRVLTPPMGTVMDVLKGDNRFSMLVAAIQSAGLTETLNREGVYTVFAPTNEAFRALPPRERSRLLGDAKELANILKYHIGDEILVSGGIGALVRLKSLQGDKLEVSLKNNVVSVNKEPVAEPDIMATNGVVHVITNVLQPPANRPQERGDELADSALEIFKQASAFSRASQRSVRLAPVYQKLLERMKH
The assay can be described thus: affinity purification with mass spectrometry; T3691 GSCs under hypoxia lysed in IP lysis buffer; anti-TGFBI antibody or IgG with protein A/G agarose overnight at 4°C; SDS-PAGE, gel fragments, LC-MS/MS (Q Exactive HF-X).

The chains behind the UniProt entries cited, without tags or fusion partners. Residues count along the entry.
UniProt P29317, residues 24-976: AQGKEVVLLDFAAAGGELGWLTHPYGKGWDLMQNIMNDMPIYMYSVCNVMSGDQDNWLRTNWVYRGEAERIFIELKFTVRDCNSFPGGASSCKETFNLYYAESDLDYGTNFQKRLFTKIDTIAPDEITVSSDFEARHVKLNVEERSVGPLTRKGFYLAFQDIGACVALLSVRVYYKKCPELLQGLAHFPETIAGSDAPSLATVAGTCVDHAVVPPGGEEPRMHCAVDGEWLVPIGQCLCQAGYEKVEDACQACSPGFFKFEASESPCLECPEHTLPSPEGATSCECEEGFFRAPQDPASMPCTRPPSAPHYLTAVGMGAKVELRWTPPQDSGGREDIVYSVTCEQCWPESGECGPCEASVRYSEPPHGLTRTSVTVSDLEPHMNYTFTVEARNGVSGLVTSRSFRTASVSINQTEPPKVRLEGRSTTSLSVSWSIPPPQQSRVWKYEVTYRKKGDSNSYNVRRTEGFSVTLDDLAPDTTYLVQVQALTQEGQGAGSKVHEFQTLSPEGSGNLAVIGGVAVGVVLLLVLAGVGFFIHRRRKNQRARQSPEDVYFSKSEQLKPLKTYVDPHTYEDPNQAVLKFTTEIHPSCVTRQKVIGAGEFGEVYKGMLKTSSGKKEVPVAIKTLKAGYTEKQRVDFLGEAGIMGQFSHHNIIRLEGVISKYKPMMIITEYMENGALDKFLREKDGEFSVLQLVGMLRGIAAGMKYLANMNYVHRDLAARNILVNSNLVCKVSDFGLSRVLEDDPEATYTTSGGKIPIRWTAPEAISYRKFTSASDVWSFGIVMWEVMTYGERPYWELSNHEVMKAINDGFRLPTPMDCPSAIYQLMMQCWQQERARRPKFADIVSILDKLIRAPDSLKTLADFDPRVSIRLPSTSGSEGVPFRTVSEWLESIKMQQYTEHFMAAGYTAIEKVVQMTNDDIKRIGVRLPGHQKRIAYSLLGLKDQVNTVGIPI

Consider one substance from PMC11426234.

No constants are given. Whether binding was seen depends on the method and setting. Binding seen in cells or lysates may run through a third protein. A yes stands for co-enrichment or nearness to the bait. Other partners may have been found.

As to “EphA2, endogenous in GSCs (from UniProt P29317 24-976) (receptor)”, the binding result is reported as “binds”.
